Measurements reported in PubChem BioAssay AID1508588 (Peter MacCallum Cancer Centre, 2020)

Assay: 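Genome-wide search for knock-downs that heighten vemurafenib action in melanoma cells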 (primary screen)
Cell system: human WM266.4 melanoma cells (BRAF V600 mutant)
Knock-down reagent: siRNA pool against human genes, 40 nM
Duration: 96 h from transfection to read-out
Treatment: vemurafenib 300 nM (about IC25), added 48 h after transfection, for 48 h; comparison arm got DMSO vehicle only
Read-out: 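Ratios to non-targeting siRNA for cell gain, counted as DAPI nuclei after minus before drug and averaged over two replicates, and for absorbance-read medium lactate per cell; both binned into fold-change classes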
Direction: cell gain with vemurafenib: higher = more cell gain than with non-targeting siRNA; lactate per cell with vemurafenib: higher = more lactate made per cell
Call rule: 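a knock-down counts as enhancing when its fold-change classes with vehicle and with vemurafenib, taken together, show a stronger drug effect on cell gain or lactate per cell; exact class pairs not stated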
Calls: active = enhances vemurafenib effect; inactive = no enhancement seen
Shown is a random part of about 18,000 deposited reagents. Over the whole deposit, 790 (4.4%) got an active call. 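Calls rest on a combination of fold-change classes in drug and vehicle arms, not all shown here.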

Gene | cell gain with vemurafenib | lactate per cell with vemurafenib | outcome
PCDHA11 | 0.7 | 0.56 | inactive
ADCY5 | 0.64 | 0.76 | inactive
OSTN | 0.41 | 0.68 | inactive
SYNJ2 | 0.56 | 0.74 | inactive
ZBED8 | 0.26 | 1.34 | inactive
LAMB3 | 0.65 | 0.92 | inactive
HS3ST2 | 0.71 | 1.02 | inactive
LRRK1 | 0.78 | 0.53 | inactive
AHCYL1 | 0.51 | 0.09 | inactive
OR6C76 | 0.26 | 0.78 | inactive
SEMA6D | 0.47 | 1.52 | inactive
DISC1 | 0.37 | 0.68 | inactive
DEFB121 | 0.27 | 1.91 | inactive
HSP90AB1 | 0.71 | 1.31 | inactive
GSPT1 | 0.71 | 0.64 | inactive
HMGXB4 | 0.94 | 0.32 | inactive
ZNF470 | 0.51 | 1.43 | inactive
LIPJ | 1.15 | 0.38 | inactive
LECT2 | 0.91 | 1.1 | inactive
OR51F1 | 0.65 | 0.53 | inactive
ADAR | 0.95 | 1.33 | inactive

Just “lactate per cell with vemurafenib” (5 entries from above):
SEMA6D = 1.52
DISC1 = 0.68
DEFB121 = 1.91
HSP90AB1 = 1.31
GSPT1 = 0.64

The results go on.
Gene | cell gain with vemurafenib | lactate per cell with vemurafenib | outcome
SLC41A2 | 0.2 | 1.85 | inactive
ITM2C | 0.21 | 0.98 | inactive
TRPC4 | 0.79 | 0.68 | inactive
CACNA1F | 0.74 | 0.88 | inactive
UGT2B4 | 0.2 | 2.02 | inactive
SPMIP4 | -0.18 | 2.2 | inactive
TRIM64 | 0.34 | 1.88 | inactive
GIPR | 1.22 | 0.7 | inactive
USF2 | 1.03 | 0.45 | inactive
RASSF3 | 0.39 | 0.77 | inactive
CYB5D2 | 0.92 | 0.71 | inactive
TRNAU1AP | 0.28 | 1.19 | inactive
H4C1 | 1.44 | 1 | inactive
